Source: US6284799A, “Cancer treatment” (priority 1996, dated 2001)

Legend:
[1] = biological target: ^3 H-DPPE binding (HIC) in rat liver microsomes; assay: competition for 3H-DPPE binding in liver microsomes; details: FIG. 2, read-out: K1 to compete for ^3 H-DPPE binding
[2] = tested on: concanavalin A-stimulated normal lymphocytes; assay: proliferation of concanavalin A-stimulated normal lymphocytes; type: cell-based; details: Lymphocyte; in the absence of cytotoxicity; FIG. 5; read-out: IC50, inhibition of proliferation

Ki [1] [µM]	SMILES	IC50 [2] [µM]
5	CN(C)CCC=C1c2ccccc2COc2ccccc21 [doxepin, reference compound]	
	CNCCC(Oc1ccc(C(F)(F)F)cc1)c1ccccc1 (centres unmarked) [fluoxetine]	10 to 20
